Measured values reported in paper PMC5945890.

Target: T1, cleavage and polyadenylation specificity factor 30-L (CPSF30-L), BD fusion for yeast two-hybrid (Arabidopsis thaliana) (UniProt A9LNK9)
T1 sequence: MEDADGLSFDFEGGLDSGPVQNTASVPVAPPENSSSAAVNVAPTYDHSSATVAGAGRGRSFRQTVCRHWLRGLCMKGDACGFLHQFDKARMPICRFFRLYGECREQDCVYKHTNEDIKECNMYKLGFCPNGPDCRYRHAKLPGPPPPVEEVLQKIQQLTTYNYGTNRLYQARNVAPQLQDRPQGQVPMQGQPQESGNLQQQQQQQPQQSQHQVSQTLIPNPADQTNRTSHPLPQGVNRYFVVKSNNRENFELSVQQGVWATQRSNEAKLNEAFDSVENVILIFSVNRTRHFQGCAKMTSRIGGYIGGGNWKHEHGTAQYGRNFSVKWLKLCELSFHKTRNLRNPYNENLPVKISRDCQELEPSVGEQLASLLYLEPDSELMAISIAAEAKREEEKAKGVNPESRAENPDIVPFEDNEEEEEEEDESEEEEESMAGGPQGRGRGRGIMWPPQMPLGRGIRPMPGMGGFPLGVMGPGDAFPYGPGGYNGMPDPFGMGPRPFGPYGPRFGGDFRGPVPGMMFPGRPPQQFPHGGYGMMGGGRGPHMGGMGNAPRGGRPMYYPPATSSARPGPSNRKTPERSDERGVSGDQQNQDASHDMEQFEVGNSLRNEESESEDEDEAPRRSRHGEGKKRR
Experiment: two-hybrid; yeast two-hybrid (Clontech); CPSF30-L or mCPSF30-L in pGBKT7 (BD) as bait, FIP1, FIP1-S1 or FIP1-S2 in pGADT7 (AD); interaction tested on QDO (SD medium lacking leucine, tryptophan, histidine and adenine)

binding: no binding
Substance: FIP1-S2 (C-terminal 731 amino acid residues of FIP1), AD fusion for yeast two-hybrid (Arabidopsis thaliana) (domain or fragment)

Results are given in words; binding and its absence hold for the method and conditions named. Tags and fused reporters may be left off the sequences shown.
